PubChem BioAssay AID743454, Peter MacCallum Cancer Centre, 2014

Purpose: 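Genes whose loss kills vorinostat-resistant colon cancer cells under vorinostat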 (primary screen)
Cell system: human HCT116-VR colon cancer cells, selected for vorinostat resistance
Reagent: siRNA pool against human genes, 40 nM siRNA pool
Time to read-out: vorinostat for 24 h, read-out about 72 h after transfection
Conditions: vorinostat at 2.5 µM final
Read-out: 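Cell viability by CellTiter-Fluor and caspase 3/7 activity by luminescence, each scaled to mock wells per plate, duplicates averaged, then robust z-scored over all plates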
Direction: viability robust z-score: higher = more viable cells than screen typical; caspase robust z-score: higher = more caspase 3/7 activity than screen typical
Call rule: 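a knock-down is a hit when classed RV1 or RV2 for lowered viability, or CA1 or CA2 for caspase activation; those lethal without drug were dropped; hits were retested singly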
Shown is one part, drawn at random, of about 18,000 deposited reagents. Over the whole deposit, 450 (2.5%) were called active. 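Single biological run; no consistent viability z cut-off exists, so the class columns, not z-scores, define the calls.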 Entries without a mark were called inactive.

Gene	viability hit class	caspase hit class	viability robust z-score	caspase robust z-score
IMPDH1 (GeneID 3614)	no change	no change	0.44	-0.94
SYNPR (GeneID 132204)	no change	no change	-0.14	-0.22
C16orf46 (GeneID 123775)	no change	no change	0.68	0.99
ACP6 (GeneID 51205)	no change	no change	1.15	-0.35
KDM1A (GeneID 23028)	no change	no change	-0.07	-0.48
ENDOU (GeneID 8909)	no change (active)	CA2 (caspase activation)	-1.68	7.75
OGG1 (GeneID 4968)	no change	no change	-1.65	0.45
DUSP23 (GeneID 54935)	no change	no change	-0.52	2.65
PLGRKT (GeneID 55848)	no change	no change	0.06	0.52
OTUD7A (GeneID 161725)	no change	no change	-2.98	2.59
FASLG (GeneID 356)	no change	no change	0.16	-1.23
IL20RA (GeneID 53832)	no change	no change	0.2	-0.28
TMEM40 (GeneID 55287)	no change	no change	0.05	0.36
GAPT (GeneID 202309)	no change	no change	0.57	-0.96
RAB23 (GeneID 51715)	no change	no change	0.84	1.58
DPM2 (GeneID 8818)	no change	no change	-0.36	0.41
ZNF7 (GeneID 7553)	no change	no change	-0.07	-0.18
KLK8 (GeneID 11202)	no change	no change	1.07	-0.72
CAPN5 (GeneID 726)	no change	no change	0.64	0.8
PDCD7 (GeneID 10081)	no change	no change	-1.52	-1.56
TRAPPC2 (GeneID 6399)	no change	no change	-0.27	-0.58
PNMA5 (GeneID 114824)	no change	no change	-0.01	0.52
KHDRBS3 (GeneID 10656)	no change	no change	0.46	-0.29

Targets listed so far whose gene name begins with K or k (3):
Gene	viability hit class	caspase hit class	viability robust z-score	caspase robust z-score
KDM1A (GeneID 23028)	no change	no change	-0.07	-0.48
KLK8 (GeneID 11202)	no change	no change	1.07	-0.72
KHDRBS3 (GeneID 10656)	no change	no change	0.46	-0.29
